From PubChem BioAssay AID328 (DTP/NCI, 2004)
The list does not hold the whole screen: it gathers tests that were run many times, whatever their T/C, doses with no T/C, and many T/C values between a quarter and a half above the control. Other doses and runs of a compound stand elsewhere. T/C is the treated group as % of the vehicle group. Some doses have a count of surviving animals in place of a T/C: the source holds a T/C of zero for them, seemingly a mark for toxic or unscored doses. Some doses without a T/C left all or most animals alive at the check, yet need not have been tolerated: the source hardly ever lists a survival T/C far under the control, and the zero likely stands for such cases as well. Counts of survivors are from the toxicity check (mostly the fifth day) where no day follows; animals may have died later. Schedule codes are those of the source, taken here to give the interval after Q, in days (D) or hours (H), and the number of doses after X. Some doses were run more than once; the values are given in rising order. Where survival is the endpoint, the PubChem record calls one and a half times the control and up active, and a quarter to a half above the control has no call in these data; cut-offs in other NCI protocols can differ. Some T/C values are followed by the survivors on the day toxicity was checked, most often the fifth; where none is given, no animal had died by that day.

Test system: BDF1 mice, P388 leukemia ip, median survival T/C
Assay: NCI In Vivo Anticancer Drug Screen. Data for tumor model P388 Leukemia (intraperitoneal) in B6D2F1 (BDF1) mice
Details: T/C endpoint: median survival time, higher T/C = longer survival
Procedure, shortened: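 Mice carrying the transplantable tumour receive compound or vehicle. Survival is followed in each arm, and the treated measure is divided by the vehicle measure.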

[1] = dose: 100.0 mg/kg/injection, schedule: Q01DX009 (ip), vehicle: saline with Tween-80
[2] = dose: 200.0 mg/kg/injection, schedule: Q01DX009 (ip), vehicle: Klucel (hydroxypropylcellulose) (HPC)
[3] = dose: 50.0 mg/kg/injection, schedule: Q01DX009 (ip), vehicle: saline with Tween-80
[4] = dose: 200.0 mg/kg/injection, schedule: Q01DX009 (ip), vehicle: saline with Tween-80
[5] = dose: 200.0 mg/kg/injection, schedule: Q04DX003 (ip), vehicle: saline with Tween-80
[6] = dose: 400.0 mg/kg/injection, schedule: Q04DX003 (ip), vehicle: saline with Tween-80
[7] = dose: 400.0 mg/kg/injection, schedule: Q01DX009 (ip), vehicle: saline with Tween-80

For `CN1CCC23c4ccccc4NC1C21CCN(C)C3Nc2ccccc21`, the survivor count (dose: 40.0 mg/kg/injection, schedule: Q01DX010 (ip), vehicle: carboxymethylcellulose (CMC)) was 3 of 6, the survivor count (dose: 80.0 mg/kg/injection, schedule: Q01DX010 (ip), vehicle: carboxymethylcellulose (CMC)) was 0 of 6 and the survivor count (dose: 160.0 mg/kg/injection, schedule: Q01DX010 (ip), vehicle: carboxymethylcellulose (CMC)) was 0 of 6.
In the case of `C[C@@H]1O[C@@H](O[C@H]2CC[C@]3(C=O)[C@H]4CC[C@]5(C)[C@@H](c6ccc(=O)oc6)CC[C@]5(O)[C@@H]4CC[C@]3(O)C2)[C@H](O)[C@H](O)[C@H]1O[C@@H]1O[C@H](CO)[C@@H](O)[C@H](O)[C@H]1O`, the survivor count (dose: 10.0 mg/kg/injection, schedule: Q01DX010 (ip), vehicle: carboxymethylcellulose (CMC)) is reported as 1 of 6 and the survivor count (dose: 20.0 mg/kg/injection, schedule: Q01DX010 (ip), vehicle: carboxymethylcellulose (CMC)) is reported as 0 of 6.
For `CCCCCCCCCCCCCCCCOc1c(Br)cc(Br)cc1Br`, the survivor count (dose: 100.0 mg/kg/injection, schedule: Q01DX001 (ip), vehicle: saline with Tween-80) was 6 of 6 and the survivor count (dose: 200.0 mg/kg/injection, schedule: Q01DX001 (ip), vehicle: saline with Tween-80) was 6 of 6.
With `CCN(CCP(c1ccccc1)c1ccccc1)CCP(c1ccccc1)c1ccccc1` the T/C (dose: 1.7 mg/kg/injection, schedule: Q01DX009 (ip), vehicle: saline with Tween-80) was 125 % of control, the T/C (dose: 2.6 mg/kg/injection, schedule: Q01DX009 (ip), vehicle: saline with Tween-80) was 125 % of control and the T/C (dose: 4.0 mg/kg/injection, schedule: Q01DX009 (ip), vehicle: saline with Tween-80) was 133 and 144 % of control. For the same compound, the T/C (dose: 6.0 mg/kg/injection, schedule: Q01DX009 (ip), vehicle: saline with Tween-80) was 140 % of control, the T/C (dose: 9.0 mg/kg/injection, schedule: Q01DX009 (ip), vehicle: saline with Tween-80) was 148 % of control and the survivor count (dose: 25.0 mg/kg/injection, schedule: Q01DX009 (ip), vehicle: saline with Tween-80) was 2 of 6. For the same compound, the survivor count [1] was 4 of 6 and the T/C (dose: 150.0 mg/kg/injection, schedule: Q04DX003 (ip), vehicle: saline with Tween-80) was 145 % of control.
With `C[n+]1c(-c2ccc(Cl)c(Cl)c2)c2cc(N)ccc2c2ccccc21` the T/C (dose: 3.12 mg/kg/injection, schedule: Q01DX009 (ip), vehicle: water) was 145 % of control [5 of 6 alive] and the T/C (dose: 6.25 mg/kg/injection, schedule: Q01DX009 (ip), vehicle: water) was 133 % of control.
`CCOC(=O)CSc1nc2nc(Cl)c(Cl)nc2[nH]1` was tested, and the survivor count (dose: 25.0 mg/kg/injection, schedule: Q04DX003 (ip), vehicle: saline with Tween-80) was 3 of 6.
`C[C@]12CCC(=O)C(O)=C1CC[C@@H]1[C@@H]2CC[C@@]2(C)[C@H]1CC[C@]2(C)O` was tested, and the T/C (dose: 100.0 mg/kg/injection, schedule: Q01DX009 (ip), vehicle: saline sonified) was 127 % of control.
`Nc1ncnc2c1nnn2C1CC(CO)C(O)C1O` (configuration not stated) was tested, and the T/C (dose: 37.0 mg/kg/injection, schedule: Q01DX009 (ip), vehicle: saline with Tween-80) was 142 % of control and the T/C (dose: 225.0 mg/kg/injection, schedule: Q01DX009 (ip), vehicle: saline with Tween-80) was 136 % of control.
In the case of `O=C(/C=C/c1ccc2c(c1)OCO2)c1ccccc1`, the survivor count [2] is reported as 4 of 6.
In the case of `CC(C)=N/N=C(/N)[Se]`, the survivor count [3] is reported as 0 of 6, the survivor count [1] is reported as 0 of 6 and the survivor count [4] is reported as 0 of 6.
For `CCCCCCCCCCCCN1CCCC(O)C1` (configuration not stated), the survivor count [1] was 0 of 6 and the survivor count [5] was 3 of 6.
`CCCCCCCCCCCCCCCC(=O)N(CCCN)C(C)CCCN(CC)CC` (configuration not stated) was tested, and the survivor count [3] was 0 of 6, the survivor count [1] was 0 of 6 and the survivor count [5] was 3 of 6. For the same compound, the survivor count [6] was 1 of 6.
In the case of `CC[N+](C)(CC)CCC[n+]1c(-c2ccccc2)c2cc(N)ccc2c2ccc(N)cc21`, the survivor count (dose: 6.0 mg/kg/injection, schedule: Q01DX009 (ip), vehicle: saline) is reported as 3 of 6 and the survivor count (dose: 12.5 mg/kg/injection, schedule: Q04DX003 (ip), vehicle: saline) is reported as 2 of 6.
With `COc1ccc2nc3cc(Cl)ccc3c(NCCNCCNCCNc3c4ccc(Cl)cc4nc4ccc(OC)cc34)c2c1` the survivor count [1] was 5 of 6.
With `OCCOc1c(Cl)cc(Cl)cc1Cl` the survivor count [6] was 6 of 6.
With `COc1ccc(CC2c3cc(OC)c(OC)cc3CCN2C)cc1OC` (configuration not stated) the survivor count (dose: 12.5 mg/kg/injection, schedule: Q01DX005 (ip), vehicle: saline with Tween-80) was 6 of 6, the survivor count (dose: 25.0 mg/kg/injection, schedule: Q01DX005 (ip), vehicle: saline with Tween-80) was 5 of 6 and the survivor count (dose: 50.0 mg/kg/injection, schedule: Q01DX005 (ip), vehicle: saline with Tween-80) was 4 of 6. For the same compound, the survivor count (dose: 100.0 mg/kg/injection, schedule: Q01DX005 (ip), vehicle: saline with Tween-80) was 0 of 6 and the survivor count (dose: 200.0 mg/kg/injection, schedule: Q01DX005 (ip), vehicle: saline with Tween-80) was 0 of 6.
In the case of `CC(N)Cc1ccc(N(C)C)cc1F` (configuration not stated), the T/C (dose: 100.0 mg/kg/injection, schedule: Q01DX009 (ip), vehicle: saline) is reported as 136 % of control, the survivor count [4] is reported as 1 of 6 and the survivor count (dose: 200.0 mg/kg/injection, schedule: Q01DX009 (ip), vehicle: saline) is reported as 0 of 6.
`Cc1ccccc1-c1nc2cc(Cl)ccc2c(=O)o1` was tested, and the survivor count [5] was 3 of 6 and the survivor count [6] was 0 of 6.
In the case of `Cc1c(Br)c(=O)n(-c2ccccc2)n1C`, the survivor count (dose: 100.0 mg/kg/injection, schedule: Q01DX009 (ip), vehicle: Klucel (hydroxypropylcellulose) (HPC)) is reported as 3 of 3 and the survivor count [2] is reported as 3 of 3.
With `COc1cc(Cc2nccc3cc(OC)c(OC)cc23)c(C(C)=O)c(OC)c1` the T/C (dose: 5.0 mg/kg/injection, schedule: Q01DX009 (ip), vehicle: saline) was 131 and 140 % of control, the T/C (dose: 10.0 mg/kg/injection, schedule: Q01DX009 (ip), vehicle: saline) was 136 % of control and the T/C (dose: 20.0 mg/kg/injection, schedule: Q01DX009 (ip), vehicle: saline) was 145 % of control. For the same compound, the survivor count (dose: 40.0 mg/kg/injection, schedule: Q01DX009 (ip), vehicle: saline) was 6 of 6, the T/C (dose: 50.0 mg/kg/injection, schedule: Q04DX003 (ip), vehicle: saline) was 148 % of control and the survivor count (dose: 160.0 mg/kg/injection, schedule: Q01DX009 (ip), vehicle: saline) was 4 of 6 and 5 of 6. For the same compound, the T/C (dose: 200.0 mg/kg/injection, schedule: Q04DX003 (ip), vehicle: saline) was 127 % of control [5 of 6 alive] and the survivor count (dose: 400.0 mg/kg/injection, schedule: Q04DX003 (ip), vehicle: saline) was 4 of 6.
For `O=C(C[n+]1ccccc1)N/N=C/c1ccc([N+](=O)[O-])s1`, the T/C (dose: 25.0 mg/kg/injection, schedule: Q01DX009 (ip), vehicle: water) was 125 % of control, the survivor count (dose: 50.0 mg/kg/injection, schedule: Q01DX009 (ip), vehicle: water) was 2 of 6 and the survivor count (dose: 100.0 mg/kg/injection, schedule: Q04DX003 (ip), vehicle: water) was 4 of 6.
In the case of `CC(=O)N(C)c1ccc(/C=C2\C=Cc3ccccc32)cc1`, the survivor count [7] is reported as 3 of 6 and the survivor count [6] is reported as 6 of 6.
In the case of `O=C(Cn1ccc(=O)[nH]c1=O)c1ccc(Cl)s1`, the T/C [3] is reported as 132 % of control.
In the case of `Cc1cc(NCCCN(C)C)c2ccc3c(ccc4c(NCCCN(C)C)cc(C)nc43)c2n1`, the T/C [3] is reported as 125 % of control, the survivor count [1] is reported as 0 of 6 and the survivor count [4] is reported as 0 of 6.
For `Nc1nc(=S)c2ncn(C3OC(COC(=O)c4ccc(Cl)cc4)C(OC(=O)c4ccc(Cl)cc4)C3OC(=O)c3ccc(Cl)cc3)c2[nH]1` (configuration not stated), the T/C (dose: 66.0 mg/kg/injection, schedule: Q01DX009 (ip), vehicle: saline with Tween-80) was 125 % of control, the T/C [1] was 136 and 140 % of control and the T/C (dose: 150.0 mg/kg/injection, schedule: Q01DX009 (ip), vehicle: saline with Tween-80) was 125 % of control. The T/C [5] was 145 % of control and the survivor count [7] was 5 of 6.
`CC(C)Cn1cnc2c(SCc3ccc(Cl)cc3Cl)nc(N)nc21` was tested, and the T/C (dose: 100.0 mg/kg/injection, schedule: Q01DX009 (ip), vehicle: gum acacia) was 133 % of control and the survivor count (dose: 400.0 mg/kg/injection, schedule: Q04DX003 (ip), vehicle: gum acacia) was 6 of 6.
In the case of `c1ccc(CSc2ncnc3nc[nH]c23)nc1`, the survivor count (dose: 200.0 mg/kg/injection, schedule: Q01DX009 (ip), vehicle: saline sonified) is reported as 4 of 6.
